According to article PMC5700975:
Substitutions are numbered along the chain they refer to. Results are given in words; binding and its absence hold for the method and conditions named. In cells and extracts the contact can be indirect. Some entries that bind do so weakly or less than the wild type. For some assays here: Sequences can lack the tags named with a protein. Values belong to the substance of their own block, whether it stands above or below them.

By UniProt entry, the sequences of proteins in these tests, tags left out. Where a name states a change or a piece, a line headed by the entry shows the natural chain unless it says otherwise.
UniProt P23727: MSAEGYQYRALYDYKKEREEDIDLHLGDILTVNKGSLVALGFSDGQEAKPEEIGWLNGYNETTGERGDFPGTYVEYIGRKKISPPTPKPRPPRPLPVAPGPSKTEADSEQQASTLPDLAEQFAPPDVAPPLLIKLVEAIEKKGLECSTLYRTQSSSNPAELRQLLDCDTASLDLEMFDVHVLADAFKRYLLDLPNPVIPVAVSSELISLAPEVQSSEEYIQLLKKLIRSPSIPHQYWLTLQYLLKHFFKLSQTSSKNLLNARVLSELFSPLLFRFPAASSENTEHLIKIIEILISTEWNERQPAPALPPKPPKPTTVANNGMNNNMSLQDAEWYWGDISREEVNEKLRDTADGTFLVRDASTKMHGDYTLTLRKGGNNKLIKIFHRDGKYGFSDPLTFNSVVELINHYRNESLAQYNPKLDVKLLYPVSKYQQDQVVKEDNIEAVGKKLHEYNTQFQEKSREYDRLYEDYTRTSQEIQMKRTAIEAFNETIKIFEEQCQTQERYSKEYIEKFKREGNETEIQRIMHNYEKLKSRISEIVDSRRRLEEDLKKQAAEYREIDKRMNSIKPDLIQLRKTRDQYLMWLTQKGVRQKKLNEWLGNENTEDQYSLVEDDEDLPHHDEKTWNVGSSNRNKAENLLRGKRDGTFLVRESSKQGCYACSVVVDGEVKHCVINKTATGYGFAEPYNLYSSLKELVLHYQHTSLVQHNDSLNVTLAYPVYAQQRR
UniProt P42338: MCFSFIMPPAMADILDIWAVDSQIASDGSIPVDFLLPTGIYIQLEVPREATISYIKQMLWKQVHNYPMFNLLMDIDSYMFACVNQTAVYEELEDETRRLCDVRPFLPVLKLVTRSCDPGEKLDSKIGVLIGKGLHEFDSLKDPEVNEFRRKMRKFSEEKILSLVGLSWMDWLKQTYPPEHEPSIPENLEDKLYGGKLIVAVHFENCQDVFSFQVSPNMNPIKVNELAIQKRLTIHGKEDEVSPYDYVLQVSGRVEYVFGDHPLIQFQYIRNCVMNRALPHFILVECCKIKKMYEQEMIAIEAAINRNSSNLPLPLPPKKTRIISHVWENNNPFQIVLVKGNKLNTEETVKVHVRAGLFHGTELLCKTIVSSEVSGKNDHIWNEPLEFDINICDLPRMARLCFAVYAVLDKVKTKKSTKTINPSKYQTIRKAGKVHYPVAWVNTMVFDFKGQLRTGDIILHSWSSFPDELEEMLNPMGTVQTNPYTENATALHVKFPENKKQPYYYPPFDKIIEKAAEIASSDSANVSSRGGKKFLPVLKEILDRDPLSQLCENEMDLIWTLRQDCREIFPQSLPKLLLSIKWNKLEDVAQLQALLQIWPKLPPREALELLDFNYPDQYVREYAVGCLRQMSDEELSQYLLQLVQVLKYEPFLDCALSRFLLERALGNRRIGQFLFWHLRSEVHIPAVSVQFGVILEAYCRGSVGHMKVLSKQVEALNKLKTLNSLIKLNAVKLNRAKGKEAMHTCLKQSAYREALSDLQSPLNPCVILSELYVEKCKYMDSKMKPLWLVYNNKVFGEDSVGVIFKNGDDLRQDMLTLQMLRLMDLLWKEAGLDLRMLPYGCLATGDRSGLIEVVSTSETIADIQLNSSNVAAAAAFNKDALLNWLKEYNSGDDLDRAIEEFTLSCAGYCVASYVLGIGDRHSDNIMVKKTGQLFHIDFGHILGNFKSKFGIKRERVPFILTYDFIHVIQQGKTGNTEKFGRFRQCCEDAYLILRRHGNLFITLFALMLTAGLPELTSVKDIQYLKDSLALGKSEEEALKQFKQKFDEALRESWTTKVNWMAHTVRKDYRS
UniProt P42336: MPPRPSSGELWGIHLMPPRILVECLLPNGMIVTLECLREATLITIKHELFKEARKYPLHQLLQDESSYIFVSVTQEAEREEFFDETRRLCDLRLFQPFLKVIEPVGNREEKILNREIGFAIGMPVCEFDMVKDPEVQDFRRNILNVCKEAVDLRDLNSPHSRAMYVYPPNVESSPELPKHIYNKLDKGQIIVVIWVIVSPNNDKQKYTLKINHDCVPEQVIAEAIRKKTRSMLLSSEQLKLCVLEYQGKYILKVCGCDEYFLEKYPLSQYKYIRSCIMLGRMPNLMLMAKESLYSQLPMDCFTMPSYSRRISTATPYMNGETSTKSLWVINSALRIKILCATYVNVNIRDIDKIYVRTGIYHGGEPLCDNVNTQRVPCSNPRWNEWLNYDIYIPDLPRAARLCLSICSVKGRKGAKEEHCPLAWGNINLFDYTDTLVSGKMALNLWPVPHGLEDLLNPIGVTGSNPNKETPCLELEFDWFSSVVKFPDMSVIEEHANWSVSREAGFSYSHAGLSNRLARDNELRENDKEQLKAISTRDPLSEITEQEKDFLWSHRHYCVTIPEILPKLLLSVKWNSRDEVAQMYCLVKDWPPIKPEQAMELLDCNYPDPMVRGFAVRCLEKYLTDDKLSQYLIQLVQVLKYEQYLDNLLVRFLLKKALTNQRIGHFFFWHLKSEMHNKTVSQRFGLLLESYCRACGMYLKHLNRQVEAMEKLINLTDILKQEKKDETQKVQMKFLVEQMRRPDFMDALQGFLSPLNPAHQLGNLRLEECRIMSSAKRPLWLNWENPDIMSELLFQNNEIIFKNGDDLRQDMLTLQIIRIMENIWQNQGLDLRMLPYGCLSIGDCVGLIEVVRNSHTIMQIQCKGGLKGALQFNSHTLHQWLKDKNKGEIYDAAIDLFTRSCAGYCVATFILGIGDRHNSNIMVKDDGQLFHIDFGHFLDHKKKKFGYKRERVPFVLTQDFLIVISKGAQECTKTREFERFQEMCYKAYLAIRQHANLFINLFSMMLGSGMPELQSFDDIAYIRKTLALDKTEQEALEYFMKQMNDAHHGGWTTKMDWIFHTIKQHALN

How the values were obtained:
[1] = target: Myc3-iSH2-p110β (wild type) (bovine | human) (UniProt P23727+P42338); experiment: co-IP; COS-1 cells co-transfected with FLAG-p85 and Myc-p110 or Myc-iSH2-p110; lysates immunoprecipitated with Myc antibody (control mouse IgG), SDS-PAGE, immunoblot
Myc3-p110α = Myc3-p110α (UniProt P42336); experiment: as above
Myc3-p110β (human) = Myc3-p110β (human) (UniProt P42338); experiment: as above
[2] = target: T1, GST-Rab5 wild-type (canine) (UniProt P18066); experiment: pull-down; GST-Rab5 on glutathione Sepharose beads loaded with GDP; incubated with transfected COS-1 lysate containing Myc-iSH2-p110; bound protein detected by anti-Myc immunoblot; only the target purified
T1 sequence: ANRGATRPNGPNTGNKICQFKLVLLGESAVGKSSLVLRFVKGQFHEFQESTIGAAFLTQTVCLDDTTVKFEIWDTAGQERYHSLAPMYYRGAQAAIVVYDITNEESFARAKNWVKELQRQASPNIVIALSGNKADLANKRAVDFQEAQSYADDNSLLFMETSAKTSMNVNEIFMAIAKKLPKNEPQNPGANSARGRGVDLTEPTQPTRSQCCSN

[3] = target: T1, GST-Rab5 wild-type (canine); experiment: pull-down; GST or GST-Rab5 (wild type or mutant, 10 µg) on glutathione Sepharose beads loaded with GppCp (non-hydrolysable GTP analogue); incubated with transfected COS-1 lysate containing Myc-iSH2-p110; bound protein detected by anti-Myc immunoblot; only the target purified
GST-Rab5 H46A (canine) = target: T2, GST-Rab5 H46A (canine) (UniProt P18066); experiment: as above
T2 sequence: T1 sequence with H45A

GST-Rab5 E47A (canine) = target: T3, GST-Rab5 E47A (canine) (UniProt P18066); experiment: as above
T3 sequence: T1 sequence with E46A

GST-Rab5 S84A (canine) = target: T4, GST-Rab5 S84A (canine) (UniProt P18066); experiment: as above
T4 sequence: T1 sequence with S83A

GST-Rab5 Q44E (canine) = target: T5, GST-Rab5 Q44E (canine) (UniProt P18066); experiment: as above
T5 sequence: T1 sequence with Q43E

binding [1]: binds weakly
binding (Myc3-p110α): binds
binding (Myc3-p110β (human)): binds
Substance: FLAG-p85α (from UniProt P23727 1-724)

binding [3]: binds
binding (GST-Rab5 H46A (canine)): binds
binding (GST-Rab5 E47A (canine)): binds
binding (GST-Rab5 S84A (canine)): binds
binding (GST-Rab5 Q44E (canine)): binds
Substance: Myc3-iSH2-p110β (wild type) (from UniProt P23727 466-567; P42338 1-1070)
binding [2]: no binding (condition: GST-Rab5 loaded with GDP)

binding [3]: binds
Substance: Myc3-iSH2-p110β D239R (from UniProt P23727 466-567; P42338 1-1070)

binding [3]: binds
Substance: Myc3-iSH2-p110β L232A (from UniProt P23727 466-567; P42338 1-1070)
